Assay results reported in US20110152225A1, “PPAR-Gamma Agonists for the Induction of Cationic Antimicrobial Peptide Expression as Immunoprotective Stimulants” (priority 2007, published 2011).
At least one compound was matched to its structure with a doubt left.

Tests used:
[1] = test system: beta-catenin; experiment: Stability of beta-catenin, immunoblotting; format: cell-based; settings: stimulation by both calyculin and rosiglitazone
Protocol: (§1) Cultured intestinal epithelial cell lines, namely Caco-2 (of human origin) and ICcl2 (of mice origin), were treated with the GSK-3 inhibitor LiCl ([…]) or the phosphatase inhibitor calyculin (50 nM) followed or not by stimulation with the PPAR-gamma agonist such as rosiglitazone (1 microM).
(§2) The expression of defensin and known target genes of both Wnt and PPAR-gamma signaling pathways were investigated by quantitative real-time PCR. The activation of GSK3, beta-catenin, NF-kappaB, ERK1/2, SAPK/JNK and p38 was measured by specific immunoblotting.

[2] = test system: cyclin-D1; experiment: Expression of Wnt/Tcf/beta-catenin target gene cyclin-D1, quantitative real-time PCR; format: cell-based; settings: stimulation by both calyculin and rosiglitazone
Protocol: as §1, §2

CN(CCOc1ccc(CC2SC(=O)NC2=O)cc1)c1ccccn1 (centres unmarked) [Rosiglitazone]
stability of the beta-catenin [1]: markedly decreased
expression of Wnt/Tcf/beta-catenin target gene cyclin-D1 [2]: markedly decreased
